Experimental data as given in publication PMC9034290.
Results are given in words; binding and its absence hold for the method and conditions named. Binding seen in cells or lysates may run through a third protein. Here binding means that the protein was enriched with, or labelled near, the bait; the list need not be complete.

Protein sequences, listed by entry. Tags and fused reporters are not part of them. Lines headed by an entry give the natural chain unless they say otherwise; changes in a name come on top.
UniProt Q57W66: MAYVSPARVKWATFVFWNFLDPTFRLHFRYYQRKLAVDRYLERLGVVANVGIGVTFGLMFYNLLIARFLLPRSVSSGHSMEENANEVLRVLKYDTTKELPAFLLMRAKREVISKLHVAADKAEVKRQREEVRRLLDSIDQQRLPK
UniProt Q389Z3: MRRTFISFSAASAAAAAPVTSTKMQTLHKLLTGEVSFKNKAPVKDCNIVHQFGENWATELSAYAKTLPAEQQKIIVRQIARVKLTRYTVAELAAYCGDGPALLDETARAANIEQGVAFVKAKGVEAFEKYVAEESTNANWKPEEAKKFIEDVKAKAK
UniProt Q581Q5: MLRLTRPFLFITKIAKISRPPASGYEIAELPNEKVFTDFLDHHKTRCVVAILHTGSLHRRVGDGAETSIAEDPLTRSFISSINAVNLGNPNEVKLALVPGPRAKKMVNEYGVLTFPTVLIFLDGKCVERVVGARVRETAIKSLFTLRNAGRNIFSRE
UniProt Q585V6: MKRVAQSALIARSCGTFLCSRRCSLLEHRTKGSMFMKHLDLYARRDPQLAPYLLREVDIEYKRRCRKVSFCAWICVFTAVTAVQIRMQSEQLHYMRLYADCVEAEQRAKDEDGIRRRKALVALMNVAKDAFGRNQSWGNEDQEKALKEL
UniProt Q38CI8: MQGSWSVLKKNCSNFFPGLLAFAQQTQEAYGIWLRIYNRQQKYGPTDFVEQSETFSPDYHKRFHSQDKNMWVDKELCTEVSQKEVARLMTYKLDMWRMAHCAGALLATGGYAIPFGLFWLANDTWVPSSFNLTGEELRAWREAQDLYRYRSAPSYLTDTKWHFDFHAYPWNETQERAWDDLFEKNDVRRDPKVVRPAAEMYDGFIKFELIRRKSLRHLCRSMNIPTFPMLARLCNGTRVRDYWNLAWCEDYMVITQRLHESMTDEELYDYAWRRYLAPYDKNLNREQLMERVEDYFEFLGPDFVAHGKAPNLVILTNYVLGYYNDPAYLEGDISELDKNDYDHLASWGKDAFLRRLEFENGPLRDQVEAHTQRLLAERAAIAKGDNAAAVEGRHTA
UniProt Q57ZW9: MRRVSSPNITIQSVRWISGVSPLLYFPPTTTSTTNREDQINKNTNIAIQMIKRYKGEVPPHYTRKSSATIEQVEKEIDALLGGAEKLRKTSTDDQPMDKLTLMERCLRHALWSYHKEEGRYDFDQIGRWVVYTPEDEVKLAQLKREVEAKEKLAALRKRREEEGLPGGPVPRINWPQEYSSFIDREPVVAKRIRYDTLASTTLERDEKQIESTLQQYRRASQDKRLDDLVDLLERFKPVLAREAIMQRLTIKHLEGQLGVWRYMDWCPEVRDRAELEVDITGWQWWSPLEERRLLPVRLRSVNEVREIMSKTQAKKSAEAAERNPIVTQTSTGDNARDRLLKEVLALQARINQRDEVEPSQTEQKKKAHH
UniProt Q385E4: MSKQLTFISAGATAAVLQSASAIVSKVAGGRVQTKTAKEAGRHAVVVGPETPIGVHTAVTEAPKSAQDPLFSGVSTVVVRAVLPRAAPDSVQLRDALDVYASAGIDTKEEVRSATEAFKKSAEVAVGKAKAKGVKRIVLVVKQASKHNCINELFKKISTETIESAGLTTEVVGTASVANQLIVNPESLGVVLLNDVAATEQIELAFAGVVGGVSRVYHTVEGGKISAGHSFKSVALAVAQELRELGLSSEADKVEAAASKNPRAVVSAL
UniProt Q586C1: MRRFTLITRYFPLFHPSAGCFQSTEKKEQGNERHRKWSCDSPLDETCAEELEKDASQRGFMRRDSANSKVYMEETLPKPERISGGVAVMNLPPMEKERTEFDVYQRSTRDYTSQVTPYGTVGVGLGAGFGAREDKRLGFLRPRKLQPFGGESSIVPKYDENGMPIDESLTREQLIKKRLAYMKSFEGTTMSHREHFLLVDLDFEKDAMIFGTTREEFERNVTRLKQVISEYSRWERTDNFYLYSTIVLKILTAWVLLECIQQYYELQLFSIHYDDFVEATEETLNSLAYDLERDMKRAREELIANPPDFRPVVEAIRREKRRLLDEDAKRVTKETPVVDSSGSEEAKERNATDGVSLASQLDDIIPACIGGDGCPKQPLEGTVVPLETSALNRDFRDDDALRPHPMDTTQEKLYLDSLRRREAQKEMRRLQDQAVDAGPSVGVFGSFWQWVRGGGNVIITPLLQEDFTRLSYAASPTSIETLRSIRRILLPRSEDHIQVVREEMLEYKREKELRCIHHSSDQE
UniProt Q38AG1: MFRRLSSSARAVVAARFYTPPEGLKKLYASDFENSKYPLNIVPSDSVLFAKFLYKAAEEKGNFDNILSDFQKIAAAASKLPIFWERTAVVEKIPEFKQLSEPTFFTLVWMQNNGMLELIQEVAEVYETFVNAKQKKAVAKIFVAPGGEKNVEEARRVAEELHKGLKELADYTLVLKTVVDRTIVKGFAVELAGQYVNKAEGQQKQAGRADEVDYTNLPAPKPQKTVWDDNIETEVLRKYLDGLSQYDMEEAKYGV
UniProt Q38DZ5: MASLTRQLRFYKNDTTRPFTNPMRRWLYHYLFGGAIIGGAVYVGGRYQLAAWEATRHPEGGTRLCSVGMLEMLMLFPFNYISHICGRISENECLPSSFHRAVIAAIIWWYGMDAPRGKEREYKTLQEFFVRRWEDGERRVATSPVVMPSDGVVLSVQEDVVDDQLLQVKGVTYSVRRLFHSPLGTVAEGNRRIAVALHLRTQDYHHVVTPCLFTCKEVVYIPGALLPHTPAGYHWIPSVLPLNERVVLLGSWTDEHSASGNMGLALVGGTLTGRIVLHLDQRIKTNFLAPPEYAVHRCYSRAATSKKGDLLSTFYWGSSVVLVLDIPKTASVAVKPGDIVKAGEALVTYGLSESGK

Target: C-terminally myc-tagged Tb927.8.3070 (T. brucei) (UniProt Q57W66)
Experiment: affinity purification with mass spectrometry; SILAC; anti-c-myc affinity gel IP of Tb927.8.3070-myc, cells induced with tetracycline for 1 day and mixed with uninduced cells; 1% digitonin, 20 mM Tris-HCl pH 7.4, 0.1 mM EDTA, 100 mM NaCl, 25 mM KCl, 2 h at 4 °C; eluates analysed by quantitative LC-MS, three replicates

| Substance | binding |
| --- | --- |
| ATPTB4 (from UniProt Q389Z3) | binds |
| cardiolipin-dependent protein 17 (from UniProt Q581Q5) | binds |
| Tb927.2.5140 (from UniProt Q585V6) | binds |
| ATPTB1 (from UniProt Q38CI8) | binds |
| ATPTB2 (from UniProt Q57ZW9) | binds |

Next, values leading:

| binding | Substance |
| --- | --- |
| binds | ATPTB3 (from UniProt Q385E4) |
| binds | Tb927.2.5930 (from UniProt Q586C1) |
| binds | oligomycin sensitivity-conferring protein (from UniProt Q38AG1) |
| binds | phosphatidylserine decarboxylase (from UniProt Q38DZ5) (enzyme) |
